For test [1], the target named is Cynomolgus TNFR2 (Sino Biological, 90102-CO8H) (cynomolgus). Put plainly: ELISA, receptor coated at 1 µg/mL, antibody titrated from 5 µg/mL. In general terms: ELISA stands for enzyme-linked immunosorbent assay.
Test [2] addresses Full length human TNFR2 on Jurkat E6-1 cells (Clone NO.3) (human) (UniProt P20333). Put plainly: FACS on human TNFR2+ Jurkat Clone No.3, biotinylated antibody with streptavidin-PE.
The target of test [3] is His tagged human TNFR2 ECD (Acro Biosystem, TN2-H5227) (human) (UniProt P20333). Kind of test: ELISA, receptor coated at 1 µg/mL, antibody titrated from 5 µg/mL.
Test [4] shares this target. Put plainly: ELISA, TNFR2-His coated, antibody 0.006 and 0.06 µg/well.

Chains of the proteins cited; added tags and fusions are not shown. Lines headed by an entry give the natural chain unless they say otherwise; changes in a name come on top. A line that says so, or that is headed by a name, gives the form on record, which may keep a tag or linker. Residues count along the entry.
UniProt P20333: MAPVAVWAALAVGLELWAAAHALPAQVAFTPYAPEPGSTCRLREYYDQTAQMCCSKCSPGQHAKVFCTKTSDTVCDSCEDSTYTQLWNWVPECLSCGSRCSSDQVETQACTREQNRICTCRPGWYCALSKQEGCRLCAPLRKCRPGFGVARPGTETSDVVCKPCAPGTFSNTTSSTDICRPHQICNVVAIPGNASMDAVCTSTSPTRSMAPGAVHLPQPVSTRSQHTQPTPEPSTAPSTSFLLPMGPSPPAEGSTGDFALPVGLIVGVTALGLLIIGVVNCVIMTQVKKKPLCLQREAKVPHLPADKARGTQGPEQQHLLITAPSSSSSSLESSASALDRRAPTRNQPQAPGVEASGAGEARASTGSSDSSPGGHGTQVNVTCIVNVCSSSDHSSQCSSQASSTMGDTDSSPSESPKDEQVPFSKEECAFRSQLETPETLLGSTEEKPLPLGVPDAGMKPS
Full length human TNFR2 on Jurkat E6-1 cells (Clone NO.3): residues 23-461 of P20333
His tagged human TNFR2 ECD (Acro Biosystem, TN2-H5227): residues 23-257 of P20333

Where a chain is given by its changes, count along the chain named. Results are given in words; binding and its absence hold for the method and conditions named. Some binding calls cover weakened binding; strength is not graded here.

B1: TN36-2 (antibody, human IgG1, V domains shown)
VH: EVQLVESGGGLIQPGGSLRLSCAASGFSLSSSAVSWVRQAPGKGLEWIGAIGSGGTSYYSNWAKSRFTISRDNSKNTLYLQMNSLRAEDTAVYYCARDPNSSDYPYGAYGMGLWGRGTLVTVSS
VL: DIQMTQSPSSLSASVGDRVTITCQVSQSISSYLSWYQQKPGKAPKLLIYYASTLASGVPSRFSGSGSGTDFTLTISSLQPEDFATYYCQQGYITSNVGNAFGGGTKVEIK
notes: Humanized; also called AL2/AL8
As for B1, the binding result in test [1] is on record as “binds”.

B2: TN36-18 (antibody, human IgG1, V domains shown)
VH: B1 VH with I12V, R116P
VL: B1 VL
notes: Humanized; also called AL6/AL8
With B2, the binding entry in test [2], in test [1], in test [3] and in test [4] was “binds” each time.

B3: TN36-3 (antibody, human IgG1, V domains shown)
VH: B1 VH
VL: B1 VL with A43P
notes: Humanized; also called AL2/AL9
Consider B3, for which the binding entry in test [1] is reported as “binds”.

B4: TN36-13 (antibody, human IgG1, V domains shown)
VH: B1 VH with N73T, L78V, Y94F, R116P
VL: B1 VL with M4L, S10F, D70E
notes: Humanized; also called AL4/AL11
With B4, the binding result in test [2], in test [1], in test [3] and in test [4] was “binds” each time.

B5: TN36-8 (antibody, human IgG1, V domains shown)
VH: B1 VH with Y94F
VL: B1 VL with S10F
notes: Humanized; also called AL3/AL10
For B5, the binding entry in test [1] was “binds”.

B6: TN36-11 (antibody, human IgG1, V domains shown)
VH: B1 VH with N73T, L78V, Y94F, R116P
VL: B1 VL with A43P
notes: Humanized; also called AL4/AL9
Consider B6, for which the binding entry in test [2], in test [1], in test [3] and in test [4] was “binds” each time.

B7: TN36-6 (antibody, human IgG1, V domains shown)
VH: B1 VH with Y94F
VL: B1 VL
notes: Humanized; also called AL3/AL8
On to B7, for which the binding result in test [1] is on record as “binds”.

B8: TN36-10 (antibody, V domains shown)
VH: B1 VH with N73T, L78V, Y94F, R116P
VL: B1 VL
notes: Humanized; also called AL4/AL8
With B8, the binding result in test [2], in test [1], in test [3] and in test [4] was “binds” throughout.

B9: TN36-20 (antibody, human IgG1, V domains shown)
VH: B1 VH with I12V, R116P
VL: B1 VL with S10F
notes: Humanized; also called AL6/AL10
Consider B9, for which the binding result in test [2], in test [1], in test [3] and in test [4] was “binds” in each case.

B10: TN36-7 (antibody, human IgG1, V domains shown)
VH: B1 VH with Y94F
VL: B1 VL with A43P
notes: Humanized; also called AL3/AL9
For the molecule B10, the binding result in test [1] is “binds”.

B11: TN36-4 (antibody, human IgG1, V domains shown)
VH: B1 VH
VL: B1 VL with S10F
notes: Humanized; also called AL2/AL10
With B11, the binding result in test [1] is recorded as “binds”.

B12: TN36-21 (antibody, human IgG1, V domains shown)
VH: B1 VH with I12V, R116P
VL: B1 VL with M4L, S10F, D70E
notes: Humanized; also called AL6/AL11
For the molecule B12, the binding result in test [2], in test [1], in test [3] and in test [4] was “binds” in each case.

B13: TN36-19 (antibody, human IgG1, V domains shown)
VH: B1 VH with I12V, R116P
VL: B1 VL with A43P
notes: Humanized; also called AL6/AL9
As to B13, the binding entry in test [2], in test [1], in test [3] and in test [4] was “binds” throughout.

B14: TN36-5 (antibody, human IgG1, V domains shown)
VH: B1 VH
VL: B1 VL with M4L, S10F, D70E
notes: Humanized; also called AL2/AL11
In the case of B14, the binding result in test [1] is listed as “binds”.

B15: TN36-14 (antibody, human IgG1, V domains shown)
VH: B1 VH with I12V, R116Q
VL: B1 VL
notes: Humanized; also called AL5/AL8
Regarding B15, the binding entry in test [2], in test [1], in test [3] and in test [4] was “binds” in each case.

B16: TN36-12 (antibody, human IgG1, V domains shown)
VH: B1 VH with N73T, L78V, Y94F, R116P
VL: B1 VL with S10F
notes: Humanized; also called AL4/AL10
Turning to B16, the binding result in test [2], in test [1], in test [3] and in test [4] was “binds” each time.

B17: TN36-16 (antibody, human IgG1, V domains shown)
VH: B1 VH with I12V, R116Q
VL: B1 VL with S10F
notes: Humanized; also called AL5/AL10
As for B17, the binding result in test [2], in test [1], in test [3] and in test [4] was “binds” each time.

B18: TN36-9 (antibody, human IgG1, V domains shown)
VH: B1 VH with Y94F
VL: B1 VL with M4L, S10F, D70E
notes: Humanized; also called AL3/AL11
As to B18, in test [1], the binding entry is “binds”.

B19: TN36-17 (antibody, human IgG1, V domains shown)
VH: B1 VH with I12V, R116Q
VL: B1 VL with M4L, S10F, D70E
notes: Humanized; also called AL5/AL11
B19: the binding result in test [2], in test [1], in test [3] and in test [4] was “binds” each time.

B20: TN36-15 (antibody, human IgG1, V domains shown)
VH: B1 VH with I12V, R116Q
VL: B1 VL with A43P
notes: Humanized; also called AL5/AL9
Consider B20, for which the binding result in test [2], in test [1], in test [3] and in test [4] was “binds” in each case.

These data come from US20240043551A1 (ADLAI NORTYE BIOPHARMA, published 2024).
